Measured values taken from PMC9958980.
These are yes or no findings as the source states them, for the method shown. Binding seen in cells or lysates may run through a third protein. Some binding calls cover weakened binding; strength is not graded here.

Chains of the proteins cited; added tags and fusions are not shown.
UniProt P13864: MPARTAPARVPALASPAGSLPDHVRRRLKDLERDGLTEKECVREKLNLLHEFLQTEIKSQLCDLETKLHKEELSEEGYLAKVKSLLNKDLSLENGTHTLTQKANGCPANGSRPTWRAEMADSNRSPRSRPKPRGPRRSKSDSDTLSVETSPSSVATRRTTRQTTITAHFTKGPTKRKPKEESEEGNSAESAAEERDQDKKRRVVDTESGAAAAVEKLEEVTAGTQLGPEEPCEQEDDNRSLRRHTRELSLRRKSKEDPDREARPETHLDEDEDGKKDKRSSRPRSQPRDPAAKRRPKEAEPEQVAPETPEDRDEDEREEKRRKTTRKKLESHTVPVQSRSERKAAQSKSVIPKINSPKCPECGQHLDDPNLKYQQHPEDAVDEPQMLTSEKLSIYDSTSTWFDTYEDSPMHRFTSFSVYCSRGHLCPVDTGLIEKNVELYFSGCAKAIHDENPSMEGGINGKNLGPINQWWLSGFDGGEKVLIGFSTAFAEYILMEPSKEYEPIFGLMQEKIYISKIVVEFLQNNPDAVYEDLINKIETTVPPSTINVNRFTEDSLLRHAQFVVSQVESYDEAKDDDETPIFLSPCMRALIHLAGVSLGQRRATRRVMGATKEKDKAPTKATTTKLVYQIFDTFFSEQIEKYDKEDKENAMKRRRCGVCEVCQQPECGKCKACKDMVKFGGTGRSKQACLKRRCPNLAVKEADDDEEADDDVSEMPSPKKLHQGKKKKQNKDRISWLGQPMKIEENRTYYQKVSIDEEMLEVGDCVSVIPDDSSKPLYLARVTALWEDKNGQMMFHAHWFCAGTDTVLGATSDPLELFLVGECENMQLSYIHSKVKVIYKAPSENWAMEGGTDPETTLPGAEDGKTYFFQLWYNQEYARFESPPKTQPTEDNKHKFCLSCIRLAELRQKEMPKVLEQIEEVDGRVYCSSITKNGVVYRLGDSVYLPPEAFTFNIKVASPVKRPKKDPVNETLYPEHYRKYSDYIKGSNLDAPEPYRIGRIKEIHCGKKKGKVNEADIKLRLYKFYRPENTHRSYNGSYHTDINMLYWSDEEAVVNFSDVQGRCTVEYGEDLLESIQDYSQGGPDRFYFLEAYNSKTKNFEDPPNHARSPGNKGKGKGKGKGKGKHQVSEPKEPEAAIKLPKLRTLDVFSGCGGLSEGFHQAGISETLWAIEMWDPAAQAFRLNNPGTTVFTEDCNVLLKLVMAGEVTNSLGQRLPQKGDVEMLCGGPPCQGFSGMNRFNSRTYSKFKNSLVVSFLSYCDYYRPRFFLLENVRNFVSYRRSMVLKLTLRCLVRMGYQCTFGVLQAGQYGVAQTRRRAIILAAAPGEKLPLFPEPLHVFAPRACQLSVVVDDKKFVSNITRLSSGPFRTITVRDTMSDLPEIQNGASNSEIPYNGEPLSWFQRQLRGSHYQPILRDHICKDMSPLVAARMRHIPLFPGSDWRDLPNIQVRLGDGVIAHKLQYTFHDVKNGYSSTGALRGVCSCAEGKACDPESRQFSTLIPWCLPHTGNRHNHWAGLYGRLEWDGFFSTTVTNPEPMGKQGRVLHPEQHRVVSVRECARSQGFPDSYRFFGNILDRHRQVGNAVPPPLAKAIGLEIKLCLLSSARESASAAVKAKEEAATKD
UniProt Q63844: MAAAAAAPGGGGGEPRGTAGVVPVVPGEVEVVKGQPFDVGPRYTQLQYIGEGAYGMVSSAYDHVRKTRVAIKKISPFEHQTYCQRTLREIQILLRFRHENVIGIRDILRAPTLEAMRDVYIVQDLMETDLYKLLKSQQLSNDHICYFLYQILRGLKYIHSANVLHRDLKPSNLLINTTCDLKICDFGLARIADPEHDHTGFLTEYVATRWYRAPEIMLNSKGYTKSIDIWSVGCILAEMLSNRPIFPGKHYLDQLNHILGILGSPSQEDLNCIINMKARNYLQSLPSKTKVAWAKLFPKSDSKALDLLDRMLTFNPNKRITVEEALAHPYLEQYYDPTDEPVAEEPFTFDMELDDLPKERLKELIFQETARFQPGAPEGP
UniProt P63085: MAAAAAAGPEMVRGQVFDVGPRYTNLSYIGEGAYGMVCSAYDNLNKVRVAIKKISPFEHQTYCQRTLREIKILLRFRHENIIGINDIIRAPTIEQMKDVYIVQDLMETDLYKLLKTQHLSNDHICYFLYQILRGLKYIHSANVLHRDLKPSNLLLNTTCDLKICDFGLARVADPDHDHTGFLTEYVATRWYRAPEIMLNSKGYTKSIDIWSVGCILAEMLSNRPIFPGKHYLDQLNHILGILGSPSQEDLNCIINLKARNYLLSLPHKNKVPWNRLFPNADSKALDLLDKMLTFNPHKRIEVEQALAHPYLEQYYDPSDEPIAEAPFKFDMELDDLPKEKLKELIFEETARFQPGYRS

Legend:
[1] = biological target: Flag-DNMT1 fusion protein (mouse DNA methyltransferase (cytosine-5) 1, wild type) (mouse) (UniProt P13864); assay: co-IP; HEK293T co-transfected with p3×Flag-CMV-10-DNMT1 and pCMV-HA-ERK1; Flag-DNMT1 captured by anti-Flag antibody, mouse IgG as negative control; blot with anti-Flag and anti-HA; cells treated with DMSO or PD0325901 (PD enhances the interaction)
[2] = biological target: ERK1 (as tested against PGC7) (mouse) (UniProt Q63844); assay: co-IP; PGC7 with ERK1/2 (Supplementary Figure S2a,b); whole cell extracts in IP lysis buffer, antibody overnight at 4 °C, protein A/G plus agarose; cells, tags and bait not told
[3] = biological target: ERK2 (as tested against PGC7) (mouse) (UniProt P63085); assay: as above

binding [1] | binding [2] | binding [3] | Molecule
binds weakly |  |  | HA-ERK1 (mouse ERK1 from pCMV-HA-ERK1) (from UniProt Q63844 1-380) (enzyme)
 | no binding | no binding | PGC7 (protein, UniProt Q8QZY3 1-150) MEEPSEKVDPMKDPETPQKKDEEDALDDTDVLQPETLVKVMKKLTLNPGVKRSARRRSLRNRIAAVPVENKSEKIRREVQSAFPKRRVRTLLSVLKDPIAKMRRLVRIEQRQKRLEGNEFERDSEPFRCLCTFCHYQRWDPSENAKIGKN
